The target of assay [1] is T1, Bazooka (Baz, Par3), endogenous in embryos (Drosophila (endogenous in embryos)) (UniProt O96782).
T1 sequence: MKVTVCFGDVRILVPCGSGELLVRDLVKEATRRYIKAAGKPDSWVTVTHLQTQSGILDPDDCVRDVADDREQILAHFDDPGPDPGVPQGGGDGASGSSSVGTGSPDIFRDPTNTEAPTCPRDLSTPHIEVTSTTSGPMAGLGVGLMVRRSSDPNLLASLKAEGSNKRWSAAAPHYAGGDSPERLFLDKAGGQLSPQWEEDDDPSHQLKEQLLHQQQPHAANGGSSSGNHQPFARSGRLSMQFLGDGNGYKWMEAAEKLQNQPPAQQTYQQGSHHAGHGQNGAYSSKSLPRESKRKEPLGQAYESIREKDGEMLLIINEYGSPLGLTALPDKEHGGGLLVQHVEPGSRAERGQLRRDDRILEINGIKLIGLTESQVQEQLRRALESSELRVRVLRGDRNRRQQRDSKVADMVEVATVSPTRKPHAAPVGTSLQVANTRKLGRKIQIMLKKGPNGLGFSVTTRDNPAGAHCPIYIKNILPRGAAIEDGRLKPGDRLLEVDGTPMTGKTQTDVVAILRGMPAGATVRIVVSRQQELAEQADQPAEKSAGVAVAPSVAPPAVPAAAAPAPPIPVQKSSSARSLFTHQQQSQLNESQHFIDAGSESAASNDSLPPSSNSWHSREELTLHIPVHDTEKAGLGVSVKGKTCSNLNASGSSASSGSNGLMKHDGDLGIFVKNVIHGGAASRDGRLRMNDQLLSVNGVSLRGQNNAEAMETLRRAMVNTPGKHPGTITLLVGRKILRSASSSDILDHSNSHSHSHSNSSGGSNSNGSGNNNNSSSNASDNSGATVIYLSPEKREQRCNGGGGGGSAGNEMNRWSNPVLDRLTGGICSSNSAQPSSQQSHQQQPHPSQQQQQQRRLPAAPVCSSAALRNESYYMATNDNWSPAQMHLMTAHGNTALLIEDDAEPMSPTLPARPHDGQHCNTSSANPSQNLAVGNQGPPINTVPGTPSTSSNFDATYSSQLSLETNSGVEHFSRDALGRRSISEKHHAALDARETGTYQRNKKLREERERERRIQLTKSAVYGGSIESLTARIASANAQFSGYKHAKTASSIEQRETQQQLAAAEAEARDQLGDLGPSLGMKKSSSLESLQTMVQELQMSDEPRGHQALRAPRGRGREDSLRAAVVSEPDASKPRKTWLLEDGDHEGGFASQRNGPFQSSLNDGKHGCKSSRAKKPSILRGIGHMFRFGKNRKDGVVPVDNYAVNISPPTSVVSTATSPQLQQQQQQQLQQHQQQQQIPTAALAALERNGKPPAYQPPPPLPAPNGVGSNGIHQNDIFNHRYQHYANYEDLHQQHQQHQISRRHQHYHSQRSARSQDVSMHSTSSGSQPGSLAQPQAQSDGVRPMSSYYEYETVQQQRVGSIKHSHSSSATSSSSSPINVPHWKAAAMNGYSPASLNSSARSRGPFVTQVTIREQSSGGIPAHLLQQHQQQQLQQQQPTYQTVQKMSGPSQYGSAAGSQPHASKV
In words: co-IP.

Assay [2] concerns the target T2, Inscuteable (Insc), endogenous in embryos (Drosophila (endogenous in embryos)) (UniProt Q24367).
T2 sequence: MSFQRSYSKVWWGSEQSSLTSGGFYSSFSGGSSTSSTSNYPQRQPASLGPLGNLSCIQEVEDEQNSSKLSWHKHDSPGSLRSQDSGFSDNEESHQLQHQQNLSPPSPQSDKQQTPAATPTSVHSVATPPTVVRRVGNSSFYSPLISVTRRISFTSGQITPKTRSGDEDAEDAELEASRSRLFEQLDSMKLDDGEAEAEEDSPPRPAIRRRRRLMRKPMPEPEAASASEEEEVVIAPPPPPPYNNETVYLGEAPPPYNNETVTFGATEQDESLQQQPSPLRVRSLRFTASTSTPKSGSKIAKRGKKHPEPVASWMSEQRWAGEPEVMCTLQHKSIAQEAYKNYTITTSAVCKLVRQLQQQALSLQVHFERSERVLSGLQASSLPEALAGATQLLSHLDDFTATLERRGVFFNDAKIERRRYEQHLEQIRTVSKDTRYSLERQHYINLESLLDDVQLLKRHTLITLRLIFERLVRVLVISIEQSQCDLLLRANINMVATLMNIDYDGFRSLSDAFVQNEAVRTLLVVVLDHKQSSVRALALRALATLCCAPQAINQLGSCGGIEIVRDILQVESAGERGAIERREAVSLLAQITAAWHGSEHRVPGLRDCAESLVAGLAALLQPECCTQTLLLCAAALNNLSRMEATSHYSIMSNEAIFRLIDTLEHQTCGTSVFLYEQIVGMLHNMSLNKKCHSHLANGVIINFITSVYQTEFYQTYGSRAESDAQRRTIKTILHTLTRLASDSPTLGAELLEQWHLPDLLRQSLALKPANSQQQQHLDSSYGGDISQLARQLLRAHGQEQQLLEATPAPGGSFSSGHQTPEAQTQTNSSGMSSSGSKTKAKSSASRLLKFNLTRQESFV
In words: co-IP.

This is an account of results in publication doi:10.1101/2022.06.05.494812.

No constants are given. Whether binding was seen depends on the method and setting. In cells and extracts the contact can be indirect. Some entries that bind do so weakly or less than the wild type.

B1: armadillo (arm)/β-catenin, endogenous in embryos (protein, UniProt P18824 1-843)
chain: MSYMPAQNRTMSHNNQYNPPDLPPMVSAKEQTLMWQQNSYLGDSGIHSGAVTQVPSLSGKEDEEMEGDPLMFDLDTGFPQNFTQDQVDDMNQQLSQTRSQRVRAAMFPETLEEGIEIPSTQFDPQQPTAVQRLSEPSQMLKHAVVNLINYQDDAELATRAIPELIKLLNDEDQVVVSQAAMMVHQLSKKEASRHAIMNSPQMVAALVRAISNSNDLESTKAAVGTLHNLSHHRQGLLAIFKSGGIPALVKLLSSPVESVLFYAITTLHNLLLHQDGSKMAVRLAGGLQKMVTLLQRNNVKFLAIVTDCLQILAYGNQESKLIILASGGPNELVRIMRSYDYEKLLWTTSRVLKVLSVCSSNKPAIVDAGGMQALAMHLGNMSPRLVQNCLWTLRNLSDAATKVEGLEALLQSLVQVLGSTDVNVVTCAAGILSNLTCNNQRNKATVCQVGGVDALVRTIINAGDREEITEPAVCALRHLTSRHVDSELAQNAVRLNYGLSVIVKLLHPPSRWPLIKAVIGLIRNLALCPANHAPLREHGAIHHLVRLLMRAFQDTERQRSSIATTGSQQPSAYADGVRMEEIVEGTVGALHILARESHNRALIRQQSVIPIFVRLLFNEIENIQRVAAGVLCELAADKEGAEIIEQEGATGPLTDLLHSRNEGVATYAAAVLFRMSEDKPQDYKKRLSIELTNSLLREDNNIWANADLGMGPDLQDMLGPEEAYEGLYGQGPPSVHSSHGGRAFHQQGYDTLPIDSMQGLEISSPVGGGGAGGAPGNGGAVGGASGGGGNIGAIPPSGAPTSPYSMDMDVGEIDAGALNFDLDAMPTPPNDNNNLAAWYDTDC
For B1, the binding result in assay [1] and in assay [2] was “binds” each time.
